Our source for the crude mass values is patent US4711877A (SmithKline Beckman Corporation, priority 1985, dated 1987).

The series is described as follows: general procedure: Boc solid-phase peptide synthesis; benzhydrylamine resin; DCC/HOBT. As to conditions: whole synthesis, scale 1 mmol.

Strings that start with PEPTIDE1 are HELM notation: dots part the residues, brackets hold end groups and non-standard residues.

The substance “PEPTIDE1{[Mpr].[D-Tyr(Et)].F.V.N.[Pen].P.R.G.[am]}$PEPTIDE1,PEPTIDE1,1:R3-6:R3$$$V2.0” gave a crude mass of 754 mg.
